What all share (experiment): affinity purification with mass spectrometry; 30 mg solubilized nuclear pellet (chromatin fraction) of 293T-REx expressing FS-tagged SCML2 in 50 mM Tris pH 7.5, 200 mM NaCl on Strep-Tactin resin, 1 hr at 4°C; washes with 300 mM NaCl, 0.1% Igepal CA630; eluted in denaturing loading buffer
Experiment [1] deals with FS-SCML2A ΔRBR (epitope-tagged SCML2A lacking the RNA-binding region) (human) (UniProt Q9UQR0).
The target in experiment [2] is FS-SCML2A (epitope-tagged SCML2A, wild type) (human) (UniProt Q9UQR0).
The target of experiment [3] is FS-SCML2B (epitope-tagged SCML2B, wild type) (human).

Sequences of proteins named here, by UniProt entry; tags and fusion partners are left off. A change or cut given only in a name is not applied to a line headed by its entry.
UniProt Q9UQR0: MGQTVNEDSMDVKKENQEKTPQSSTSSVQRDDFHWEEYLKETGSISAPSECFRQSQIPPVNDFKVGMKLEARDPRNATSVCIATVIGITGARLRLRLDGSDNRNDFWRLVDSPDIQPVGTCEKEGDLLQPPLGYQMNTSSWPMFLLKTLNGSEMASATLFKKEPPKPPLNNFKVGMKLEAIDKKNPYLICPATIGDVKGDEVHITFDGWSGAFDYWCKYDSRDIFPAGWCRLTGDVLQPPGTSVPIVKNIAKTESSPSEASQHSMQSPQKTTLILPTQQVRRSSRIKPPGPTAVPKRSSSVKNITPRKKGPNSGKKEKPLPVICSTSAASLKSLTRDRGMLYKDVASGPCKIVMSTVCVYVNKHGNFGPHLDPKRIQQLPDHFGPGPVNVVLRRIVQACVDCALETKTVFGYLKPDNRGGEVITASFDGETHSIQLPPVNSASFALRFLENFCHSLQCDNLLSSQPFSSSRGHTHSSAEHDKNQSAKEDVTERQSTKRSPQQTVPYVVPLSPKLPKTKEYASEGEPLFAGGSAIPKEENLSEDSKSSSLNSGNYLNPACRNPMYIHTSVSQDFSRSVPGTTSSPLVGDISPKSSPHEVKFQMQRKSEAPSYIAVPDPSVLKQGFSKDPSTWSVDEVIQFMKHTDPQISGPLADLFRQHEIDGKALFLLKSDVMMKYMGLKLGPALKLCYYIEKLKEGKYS
UniProt Q9HC52: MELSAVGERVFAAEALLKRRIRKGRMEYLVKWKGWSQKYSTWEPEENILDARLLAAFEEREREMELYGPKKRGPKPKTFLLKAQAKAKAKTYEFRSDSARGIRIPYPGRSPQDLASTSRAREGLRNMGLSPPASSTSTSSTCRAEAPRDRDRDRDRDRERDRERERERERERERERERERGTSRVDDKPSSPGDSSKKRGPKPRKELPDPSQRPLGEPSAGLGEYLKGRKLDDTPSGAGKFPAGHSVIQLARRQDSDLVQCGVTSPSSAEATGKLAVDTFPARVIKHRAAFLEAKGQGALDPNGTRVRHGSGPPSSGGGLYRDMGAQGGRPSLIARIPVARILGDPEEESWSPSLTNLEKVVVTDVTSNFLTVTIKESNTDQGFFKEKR
UniProt Q14781: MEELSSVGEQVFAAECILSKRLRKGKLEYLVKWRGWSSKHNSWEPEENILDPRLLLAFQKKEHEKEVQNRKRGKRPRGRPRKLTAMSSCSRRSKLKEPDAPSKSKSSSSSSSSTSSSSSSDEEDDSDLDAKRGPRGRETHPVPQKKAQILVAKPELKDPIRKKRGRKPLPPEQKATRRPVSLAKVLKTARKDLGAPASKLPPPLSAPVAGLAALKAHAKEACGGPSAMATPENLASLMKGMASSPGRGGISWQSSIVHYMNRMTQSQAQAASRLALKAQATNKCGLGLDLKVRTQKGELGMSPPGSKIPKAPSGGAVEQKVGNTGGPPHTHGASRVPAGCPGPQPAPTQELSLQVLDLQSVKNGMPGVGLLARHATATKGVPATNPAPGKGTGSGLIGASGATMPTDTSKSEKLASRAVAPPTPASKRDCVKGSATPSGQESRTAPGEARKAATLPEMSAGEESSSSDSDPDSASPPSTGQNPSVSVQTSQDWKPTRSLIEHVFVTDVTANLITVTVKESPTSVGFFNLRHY
UniProt Q96GD3: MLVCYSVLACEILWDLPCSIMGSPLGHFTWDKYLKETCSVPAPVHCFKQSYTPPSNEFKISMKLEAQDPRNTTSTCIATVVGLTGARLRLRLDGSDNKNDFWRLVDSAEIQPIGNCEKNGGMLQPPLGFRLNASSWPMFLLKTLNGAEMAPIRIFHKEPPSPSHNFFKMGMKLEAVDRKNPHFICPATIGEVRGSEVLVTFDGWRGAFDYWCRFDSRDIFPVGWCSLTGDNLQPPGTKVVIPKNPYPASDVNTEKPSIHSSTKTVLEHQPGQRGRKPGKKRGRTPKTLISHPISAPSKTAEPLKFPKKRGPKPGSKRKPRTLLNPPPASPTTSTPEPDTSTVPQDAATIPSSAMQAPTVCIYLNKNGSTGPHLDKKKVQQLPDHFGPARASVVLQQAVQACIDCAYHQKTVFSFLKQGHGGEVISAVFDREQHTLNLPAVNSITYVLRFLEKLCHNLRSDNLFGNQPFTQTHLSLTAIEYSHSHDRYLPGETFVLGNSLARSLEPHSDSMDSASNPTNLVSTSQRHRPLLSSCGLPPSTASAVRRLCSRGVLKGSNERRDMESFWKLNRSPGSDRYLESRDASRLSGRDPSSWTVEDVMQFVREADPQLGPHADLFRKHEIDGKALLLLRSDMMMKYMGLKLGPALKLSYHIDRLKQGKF
UniProt P35226: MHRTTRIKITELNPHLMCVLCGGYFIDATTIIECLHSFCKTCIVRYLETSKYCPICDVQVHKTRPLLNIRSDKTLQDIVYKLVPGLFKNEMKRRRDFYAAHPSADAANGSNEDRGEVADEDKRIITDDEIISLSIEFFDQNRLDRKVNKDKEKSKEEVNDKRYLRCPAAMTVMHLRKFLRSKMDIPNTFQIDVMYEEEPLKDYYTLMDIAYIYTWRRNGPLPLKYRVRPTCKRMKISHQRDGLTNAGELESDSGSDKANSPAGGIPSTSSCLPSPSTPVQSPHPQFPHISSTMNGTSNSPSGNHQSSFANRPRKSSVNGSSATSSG
UniProt Q99496: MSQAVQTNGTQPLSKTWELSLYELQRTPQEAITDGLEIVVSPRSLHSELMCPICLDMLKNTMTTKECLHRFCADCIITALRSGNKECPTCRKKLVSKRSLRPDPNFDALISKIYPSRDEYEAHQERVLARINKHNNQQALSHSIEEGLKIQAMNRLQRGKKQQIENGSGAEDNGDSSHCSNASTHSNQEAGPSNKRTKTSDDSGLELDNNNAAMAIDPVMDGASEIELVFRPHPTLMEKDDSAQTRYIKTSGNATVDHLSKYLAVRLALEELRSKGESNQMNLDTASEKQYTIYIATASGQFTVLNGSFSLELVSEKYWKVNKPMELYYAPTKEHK
UniProt Q93009: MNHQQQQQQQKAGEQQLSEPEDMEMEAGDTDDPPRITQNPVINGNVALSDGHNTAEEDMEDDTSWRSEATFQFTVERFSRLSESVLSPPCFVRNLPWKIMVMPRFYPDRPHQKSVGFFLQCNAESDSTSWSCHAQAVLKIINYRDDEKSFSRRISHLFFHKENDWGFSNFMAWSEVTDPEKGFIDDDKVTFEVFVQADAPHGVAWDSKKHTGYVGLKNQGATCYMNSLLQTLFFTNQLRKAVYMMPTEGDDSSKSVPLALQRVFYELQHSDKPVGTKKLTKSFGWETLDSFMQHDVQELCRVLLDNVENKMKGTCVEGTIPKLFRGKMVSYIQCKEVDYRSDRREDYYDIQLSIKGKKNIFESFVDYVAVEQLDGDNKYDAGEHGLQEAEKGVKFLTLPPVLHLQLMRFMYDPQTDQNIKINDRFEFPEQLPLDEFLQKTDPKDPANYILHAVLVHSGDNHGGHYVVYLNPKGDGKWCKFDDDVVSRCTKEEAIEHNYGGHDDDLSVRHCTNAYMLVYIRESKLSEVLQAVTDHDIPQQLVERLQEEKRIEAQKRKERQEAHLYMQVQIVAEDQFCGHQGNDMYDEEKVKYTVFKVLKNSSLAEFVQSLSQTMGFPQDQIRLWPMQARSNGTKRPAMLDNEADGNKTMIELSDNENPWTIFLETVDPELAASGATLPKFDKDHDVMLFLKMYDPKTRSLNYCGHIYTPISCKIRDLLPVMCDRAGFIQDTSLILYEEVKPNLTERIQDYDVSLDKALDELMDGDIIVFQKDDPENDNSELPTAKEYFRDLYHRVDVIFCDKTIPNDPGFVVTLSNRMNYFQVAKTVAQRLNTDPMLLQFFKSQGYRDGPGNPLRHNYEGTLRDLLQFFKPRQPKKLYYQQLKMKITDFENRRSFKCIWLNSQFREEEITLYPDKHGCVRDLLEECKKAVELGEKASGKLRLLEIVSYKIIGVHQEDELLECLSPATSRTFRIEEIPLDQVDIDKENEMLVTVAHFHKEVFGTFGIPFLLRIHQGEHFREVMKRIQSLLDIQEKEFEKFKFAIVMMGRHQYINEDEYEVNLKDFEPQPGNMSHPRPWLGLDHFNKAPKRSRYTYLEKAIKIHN
UniProt Q06587: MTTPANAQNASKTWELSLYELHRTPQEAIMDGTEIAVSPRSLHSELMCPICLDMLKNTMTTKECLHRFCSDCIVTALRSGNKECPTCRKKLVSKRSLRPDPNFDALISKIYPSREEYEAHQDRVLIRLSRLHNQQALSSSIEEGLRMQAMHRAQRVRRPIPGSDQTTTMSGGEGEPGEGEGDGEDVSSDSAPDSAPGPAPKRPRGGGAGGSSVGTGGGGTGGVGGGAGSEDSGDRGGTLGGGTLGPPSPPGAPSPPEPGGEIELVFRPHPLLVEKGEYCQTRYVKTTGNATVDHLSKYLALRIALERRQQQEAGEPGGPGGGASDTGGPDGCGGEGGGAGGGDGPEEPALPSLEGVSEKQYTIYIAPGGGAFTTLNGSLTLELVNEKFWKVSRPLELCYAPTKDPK

Results are given in words; binding and its absence hold for the method and conditions named. In cells and extracts the contact can be indirect. Here binding means that the protein was enriched with, or labelled near, the bait; the list need not be complete.

As for CBX8 (from UniProt Q9HC52 1-389), the binding result in experiment [1] and in experiment [2] was “binds” throughout.
With CBX2 (from UniProt Q14781 1-532), the binding entry in experiment [1] and in experiment [2] was “binds” throughout.
As to SCMH1 (from UniProt Q96GD3 1-660), the binding result in experiment [2] is on record as “binds”.
As for BMI1 (from UniProt P35226 1-326), the binding entry in experiment [1] and in experiment [2] was “binds” throughout.
In the case of RING1B (from UniProt Q99496 1-336), the binding entry in experiment [1] and in experiment [2] was “binds” each time.
For the molecule USP7 (from UniProt Q93009 1-1102), in experiment [2], the binding result was “binds”.
On to RING1A (from UniProt Q06587 1-406), for which the binding result in experiment [1] and in experiment [2] was “binds” each time.

B1: PHC2 (protein, UniProt Q8IXK0 1-858)
chain: MENELPVPHTSSSACATSSTSGASSSSGCNNSSSGGSGRPTGPQISVYSGIPDRQTVQVIQQALHRQPSTAAQYLQQMYAAQQQHLMLQTAALQQQHLSSAQLQSLAAVQQASLVSNRQGSTSGSNVSAQAPAQSSSINLAASPAAAQLLNRAQSVNSAAASGIAQQAVLLGNTSSPALTASQAQMYLRAQMLIFTPTATVATVQPELGTGSPARPPTPAQVQNLTLRTQQTPAAAASGPTPTQPVLPSLALKPTPGGSQPLPTPAQSRNTAQASPAGAKPGIADSVMEPHKKGDGNSSVPGSMEGRAGLSRTVPAVAAHPLIAPAYAQLQPHQLLPQPSSKHLQPQFVIQQQPQPQQQQPPPQQSRPVLQAEPHPQLASVSPSVALQPSSEAHAMPLGPVTPALPLQCPTANLHKPGGSQQCHPPTPDTGPQNGHPEGVPHTPQRRFQHTSAVILQLQPASPPQQCVPDDWKEVAPGEKSVPETRSGPSPHQQAIVTAMPGGLPVPTSPNIQPSPAHETGQGIVHALTDLSSPGMTSGNGNSASSIAGTAPQNGENKPPQAIVKPQILTHVIEGFVIQEGAEPFPVGRSSLLVGNLKKKYAQGFLPEKLPQQDHTTTTDSEMEEPYLQESKEEGAPLKLKCELCGRVDFAYKFKRSKRFCSMACAKRYNVGCTKRVGLFHSDRSKLQKAGAATHNRRRASKASLPPLTKDTKKQPTGTVPLSVTAALQLTHSQEDSSRCSDNSSYEEPLSPISASSSTSRRRQGQRDLELPDMHMRDLVGMGHHFLPSEPTKWNVEDVYEFIRSLPGCQEIAEEFRAQEIDGQALLLLKEDHLMSAMNIKLGPALKIYARISMLKDS
For B1, the binding result is recorded as “binds” in experiment [1], “binds” in experiment [2] and “binds weakly” in experiment [3].

B2: PHC3 (protein, UniProt Q8NDX5 1-983)
chain: MDTEPNPGTSSVSTTTSSTTTTTITTSSSRMQQPQISVYSGSDRHAVQVIQQALHRPPSSAAQYLQQMYAAQQQHLMLHTAALQQQHLSSSQLQSLAAVQASLSSGRPSTSPTGSVTQQSSMSQTSINLSTSPTPAQLISRSQASSSTSGSITQQTMLLGSTSPTLTASQAQMYLRAQMLIFTPATTVAAVQSDIPVVSSSSSSSCQSAATQVQNLTLRSQKLGVLSSSQNGPPKSTSQTQSLTICHNKTTVTSSKISQRDPSPESNKKGESPSLESRSTAVTRTSSIHQLIAPASYSPIQPHSLIKHQQIPLHSPPSKVSHHQLILQQQQQQIQPITLQNSTQDPPPSQHCIPLQNHGLPPAPSNAQSQHCSPIQSHPSPLTVSPNQSQSAQQSVVVSPPPPHSPSQSPTIIIHPQALIQPHPLVSSALQPGPNLQQSTANQVQATAQLNLPSHLPLPASPVVHIGPVQQSALVSPGQQIVSPSHQQYSSLQSSPIPIASPPQMSTSPPAQIPPLPLQSMQSLQVQPEILSQGQVLVQNALVSEEELPAAEALVQLPFQTLPPPQTVAVNLQVQPPAPVDPPVVYQVEDVCEEEMPEESDECVRMDRTPPPPTLSPAAITVGRGEDLTSEHPLLEQVELPAVASVSASVIKSPSDPSHVSVPPPPLLLPAATTRSNSTSMHSSIPSIENKPPQAIVKPQILTHVIEGFVIQEGLEPFPVSRSSLLIEQPVKKRPLLDNQVINSVCVQPELQNNTKHADNSSDTEMEDMIAEETLEEMDSELLKCEFCGKMGYANEFLRSKRFCTMSCAKRYNVSCSKKFALSRWNRKPDNQSLGHRGRRPSGPDGAAREHILRQLPITYPSAEEDLASHEDSVPSAMTTRLRRQSERERERELRDVRIRKMPENSDLLPVAQTEPSIWTVDDVWAFIHSLPGCQDIADEFRAQEIDGQALLLLKEDHLMSAMNIKLGPALKICARINSLKES
For the molecule B2, the binding entry in experiment [1] is given as “binds”; in experiment [2], “binds”; in experiment [3], “binds weakly”.

B3: L3MBTL3 (protein, UniProt Q96JM7 1-780)
chain: MTESASSTSGQEFDVFSVMDWKDGVGTLPGSDLKFRVNEFGALEVITDENEMENVKKATATTTWMVPTAQEAPTSPPSSRPVFPPAYWTSPPGCPTVFSEKTGMPFRLKDPVKVEGLQFCENCCQYGNVDECLSGGNYCSQNCARHIKDKDQKEERDVEEDNEEEDPKCSRKKKPKLSLKADTKEDGEERDDEMENKQDVRILRGSQRARRKRRGDSAVLKQGLPPKGKKAWCWASYLEEEKAVAVPAKLFKEHQSFPYNKNGFKVGMKLEGVDPEHQSVYCVLTVAEVCGYRIKLHFDGYSDCYDFWVNADALDIHPVGWCEKTGHKLHPPKGYKEEEFNWQTYLKTCKAQAAPKSLFENQNITVIPSGFRVGMKLEAVDKKNPSFICVATVTDMVDNRFLVHFDNWDESYDYWCEASSPHIHPVGWCKEHRRTLITPPGYPNVKHFSWDKYLEETNSLPAPARAFKVKPPHGFQKKMKLEVVDKRNPMFIRVATVADTDDHRVKVHFDGWNNCYDYWIDADSPDIHPVGWCSKTGHPLQPPLSPLELMEASEHGGCSTPGCKGIGHFKRARHLGPHSAANCPYSEINLNKDRIFPDRLSGEMPPASPSFPRNKRTDANESSSSPEIRDQHADDVKEDFEERTESEMRTSHEARGAREEPTVQQAQRRSAVFLSFKSPIPCLPLRWEQQSKLLPTVAGIPASKVSKWSTDEVSEFIQSLPGCEEHGKVFKDEQIDGEAFLLMTQTDIVKIMSIKLGPALKIFNSILMFKAAEKNSHNEL
Consider B3, for which the binding entry in experiment [2] is reported as “binds”.
